Screen size: about 400,000 compounds; about 5,500 (1.4%) were called active. This list was built around the results that the source calls inconclusive (neither active nor inactive); the mix of calls is not that of the screen. Calls come from the whole dose curve; as a rule, active = well fitted cell-killing curve with a large enough effect; inconclusive = small, poorly fitted or top-dose-only effect, or effect the other way; inactive = flat fitted curve, though single readings scatter. A potency beside an inconclusive call is a rough fit, not a confirmed value.
Experiment: qHTS assay for MDR1-selective chemotherapeutics: Primary screen using the parental adenocarcinoma cell KB-3-1; note: nearly all actives have a fitted effect of over 60% in size
Settings: KB-3-1 viability, CellTiter-Glo ATP luminescence, 72 h; activity change, negative = cytotoxic: at 46.1 µM (top of the series)
Summary of the method: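 Viability of parental KB-3-1 cells, measured by CellTiter-Glo luminescence, followed a 72 h incubation at 37 °C with pinned compounds in phenol-red-free DMEM containing 10% FBS.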
For `COC(=O)c1c(NC(=O)CN2CCC3(O)CCCCC3C2c2cc(OC)ccc2OC)sc(C)c1C` (centres undefined), the Potency was inconclusive: 29.1 µM [cytotoxic, single point]. With `Cc1ccc(C)c(Nc2nc3nonc3nc2Nc2cccc(C)c2C)c1` the Potency was active: 20.6 µM. In the case of `CC(C)(C)OC(=O)N1CCC(NC(=O)c2nc[nH]c2C(=O)NCC(=O)OCc2ccccc2)CC1`, the “activity change, negative = cytotoxic” value is reported as inactive: -9.38%. With `Cc1ccc(C(=O)NC(NC(=S)Nc2ccc(S(N)(=O)=O)cc2)C(Cl)(Cl)Cl)cc1` (centres undefined) the activity change, negative = cytotoxic was inconclusive: -9.76%. In the case of `C=CCC[C@@H](Cc1ccc(F)cc1)C(=O)O[C@H](CNC(=O)[C@H](CC=C)CC(=O)N(CCO)Cc1ccccc1)c1ccccc1`, the Potency is reported as inconclusive: 29.1 µM [cytotoxic, single point]. In the case of `CCC(C)c1ccc(C(C)NC(=S)NCc2ccc(F)cc2)cc1` (centres undefined), the Potency is reported as inconclusive: 18.4 µM [cytotoxic, single point]. For `COc1cc(CNCCc2ccc(F)cc2)ccc1OCc1ccc(Cl)nc1`, the Potency was inconclusive: 29.1 µM [cytotoxic, single point]. For `CC(=O)N1c2ccc(Cl)cc2C2C=CCC2C1c1cccc2ccccc12` (centres undefined), the Potency was inconclusive: 20.6 µM [cytotoxic, single point]. For `O=C(N/N=C/c1ccco1)c1cccc(N2CCCC2=O)c1`, the Potency was inconclusive: 2.06 µM [rising, partial curve, poor fit]. For `CCc1ccccc1OCCSc1nnc(-c2cc(OC)c(OC)c(OC)c2)o1`, the “activity change, negative = cytotoxic” value was inactive: -8.61%. With `CC1=NCCN1S(=O)(=O)c1cccc([N+](=O)[O-])c1` the Potency was inconclusive: 29.1 µM [rising, single point]. With `COc1nc(NC(=O)c2ccc(F)cc2)nc(OC)c1-c1ccccc1` the Potency was inconclusive: 29.1 µM [cytotoxic, single point]. For `CC1(C)Cc2cccc(OCC(=O)OCC(=O)Nc3ccc(S(N)(=O)=O)cc3)c2O1`, the “activity change, negative = cytotoxic” value was inactive: 4.07%. With `O=C(NNC(=O)c1cccc2ccccc12)c1ccccc1O` the Potency was inconclusive: 29.1 µM [cytotoxic, single point]. With `CC(=O)Nc1ccc(NC(=O)CSc2nnc(-c3cccs3)n2N)cc1` the “activity change, negative = cytotoxic” value was inactive: -1.45%. In the case of `COc1ccc(-c2nnc3sc(-c4ccco4)nn23)cc1OC`, the Potency is reported as inconclusive: 2.59 µM [rising, partial curve, poor fit]. For `Cc1oc(-c2cc3c(cc2Cl)OCO3)nc1CN1CCCC1c1ccc(F)cc1` (centres undefined), the Potency was inconclusive: 16.4 µM [cytotoxic, single point]. In the case of `Cc1cc(C)c(NC(=O)c2ccccc2CCc2ccccc2)c(C)c1`, the “activity change, negative = cytotoxic” value is reported as inactive: -18.2%. With `O=C(COC(=O)CC1CC2CCC1C2)Nc1cc([N+](=O)[O-])ccc1F` (centres undefined) the “activity change, negative = cytotoxic” value was inactive: -4.33%. In the case of `COc1ccc(/C=C/c2nc3ccccc3c(=O)n2-c2cccc(C(F)(F)F)c2)cc1`, the Potency is reported as inconclusive: 29.1 µM [cytotoxic, single point]. In the case of `O=C(CCC(=O)N1CCN(S(=O)(=O)c2ccc(Cl)cc2)CC1)Nc1ccc2ccccc2c1`, the “activity change, negative = cytotoxic” value is reported as inactive: 0%. In the case of `CCCc1cc(C(=O)OCC(=O)N2CCN(c3ccc(OC)cc3)CC2)sc1C`, the “activity change, negative = cytotoxic” value is reported as inactive: 16.3%. With `COCCSc1ncnc2c1oc1nc3c(cc12)COC(C)(C)C3` the Potency was inconclusive: 29.1 µM [cytotoxic, single point]. With `CO/N=C/c1ccc(Sc2ccc(C)cc2)c([N+](=O)[O-])c1` the “activity change, negative = cytotoxic” value was inactive: -3.52%. In the case of `CCN1C=C(Cc2ccc(F)cc2)C2=C(C1)C(c1ccc(F)cc1)C(C#N)=C(N)O2` (centres undefined), the Potency is reported as inconclusive: 29.1 µM [cytotoxic, single point]. For `Cc1c(/C=N/NC(=O)c2ccc(O)cc2)c2ccccn2c1C(=O)c1ccc(F)cc1`, the Potency was inconclusive: 29.1 µM [cytotoxic, single point]. In the case of `COc1cccc(C(=O)N2CCN(C(=O)c3ccc(-c4ccccc4)cc3)CC2)c1OC`, the Potency is reported as inconclusive: 20.6 µM [cytotoxic, partial curve]. In the case of `O=C(NC1CCCC1)c1cc(-c2ccccc2)on1`, the Potency is reported as inconclusive: 20.6 µM [cytotoxic, single point]. With `COc1ccccc1NS(=O)(=O)c1cc([N+](=O)[O-])ccc1N/N=C/c1c[nH]c2ccccc12` the Potency was inconclusive: 20.6 µM [cytotoxic, single point]. With `Cc1ccccc1S(=O)(=O)Cc1ccc(C(=O)NCCCN2CCN(C)CC2)o1` the “activity change, negative = cytotoxic” value was inactive: 1.44%. For `N#C/C(=C\c1ccncc1)c1nc2ccccc2[nH]1`, the “activity change, negative = cytotoxic” value was inactive: 5.45%. With `Cc1cc(C=Nc2ccc(/C=C/c3ccnc4ccccc34)cc2)ccc1N(C)C` the “activity change, negative = cytotoxic” value was inactive: -28.2%. In the case of `Cn1cccc1C(=O)Nc1ccc(Cl)c(S(=O)(=O)N2CCCCC2)c1`, the Potency is reported as inconclusive: 29.1 µM [cytotoxic, single point]. For `O=C1CC(c2ccco2)CC2=C1C1c3ccccc3C(=O)N1c1ccccc1N2` (centres undefined), the Potency was inconclusive: 29.1 µM [cytotoxic, single point]. For `C#Cc1ccc([C@H]2C=C(C(=O)N3CCN(Cc4ccccc4)CC3)O[C@@H](OCc3ccc(CO)cc3)C2)cc1`, the “activity change, negative = cytotoxic” value was inactive: -7.11%. For `COc1cccc(CNS(=O)(=O)c2ccc(N3CCCCS3(=O)=O)cc2)c1`, the Potency was inconclusive: 18.4 µM [cytotoxic, single point]. With `Nc1nc(N)c2snnc2n1` the Potency was inconclusive: 23.1 µM [cytotoxic, partial curve, poor fit]. For `COC(=O)C1=C(C(=O)OC)C(c2ccc(OC)c(OC)c2)c2sc(=O)[nH]c2S1` (centres undefined), the Potency was inconclusive: 18.4 µM [rising, single point]. For `O=CNc1cc(-c2ccc(C(=O)NC3CC3)cc2)cn2c(-c3ccc(F)c(Cl)c3)cnc12`, the Potency was inconclusive: 29.1 µM [cytotoxic, single point]. With `CN([C@@H](Cc1ccc(OS(=O)(=O)c2cccc3cnccc23)cc1)C(=O)N1CCN(c2ccccc2)CC1)S(=O)(=O)c1cccc2cnccc12` the “activity change, negative = cytotoxic” value was inactive: -0.001%. In the case of `O=C(OCC(=O)N1N=C(c2ccc(Cl)cc2)CC1c1ccco1)c1ccccc1O` (centres undefined), the Potency is reported as inconclusive: 16.4 µM [cytotoxic, single point]. For `COc1ccc(C=C(C(C)=O)C(=O)c2ccccc2)cc1`, the “activity change, negative = cytotoxic” value was inactive: -25.1%. In the case of `Cc1cccc(-c2nc3ccccc3c(=O)n2N)c1`, the activity change, negative = cytotoxic is reported as inconclusive: -0.349%. With `CN(C)S(=O)(=O)c1ccc2c(c1)C(=NO)c1cc(S(=O)(=O)N(C)C)ccc1-2` the “activity change, negative = cytotoxic” value was inactive: -0.173%.

From PubChem BioAssay AID1347075 (National Center for Advancing Translational Sciences (NCATS), 2019)
% is set by controls: 0 for no effect and ±100 for the full control effect; potency is the fitted concentration of half-maximal effect.
